Measurements reported in PubChem BioAssay AID1259308 (NCATS, 2017)
Screen: 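Knock-downs that increase output of a recombinant reporter protein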 (primary screen). System: human HEK293 embryonic kidney cells stably expressing firefly luciferase (HEK-CMV-Luc2-Hygro). Reagents: single siRNA against human genes, 0.8 pmol siRNA per well. Time to read-out: 72 h. Read-out: 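Reporter luminescence and viable-cell signal on separate replicate plates, given as percent of non-targeting control and median/MAD z-scores, plus per-cell luciferase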. Direction: total luciferase, z-score and total luciferase, % of control: higher = more reporter protein produced. Hit rule: 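An siRNA counts as active if its total luciferase robust z-score exceeds 3; genes with two or more such siRNAs out of three were retested with fresh siRNAs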. Meaning of the calls: active = raised luciferase; inactive = no rise.
This is an unselected part of about 59,000 deposited reagents. Over the whole deposit, about 1,510 (2.6%) got an active call. 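Calls use total luciferase alone and ignore viability, so some active siRNAs may act by altering cell number.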 The numbers tell different reagents against one gene apart. Further read-outs or replicates are left out here. Reagent sequences are not shown.

ZNF699 (zinc finger protein 699) #1 gave total luciferase, z-score 0.177; total luciferase, % of control 85.4; inactive.
ZNF699 (zinc finger protein 699) #2 gave total luciferase, z-score 0.463; total luciferase, % of control 91.1; inactive.
Against ZNF699 (zinc finger protein 699) #3, the values are total luciferase, z-score -1.22; total luciferase, % of control 57.7; inactive.
Depletion of STXBP5L (syntaxin binding protein 5L) #1 gave: total luciferase, z-score -0.0932; total luciferase, % of control 80; inactive.
After knock-down of STXBP5L (syntaxin binding protein 5L) #2, the screen gave total luciferase, z-score -1.32; total luciferase, % of control 55.6; inactive.
Against STXBP5L (syntaxin binding protein 5L) #3, the entry reads total luciferase, z-score 0.0709; total luciferase, % of control 83.3; inactive.
For DGKK (diacylglycerol kinase kappa) #1, the entry reads total luciferase, z-score 0.183; total luciferase, % of control 85.5; inactive.
Depletion of DGKK (diacylglycerol kinase kappa) #2 came out at: total luciferase, z-score -0.391; total luciferase, % of control 74.1; inactive.
After knock-down of DGKK (diacylglycerol kinase kappa) #3, the record shows total luciferase, z-score -0.825; total luciferase, % of control 65.5; inactive.
After knock-down of PPM1N (protein phosphatase, Mg2+/Mn2+ dependent 1N (putative)) #1 the results were total luciferase, z-score -0.696; total luciferase, % of control 68.1; inactive.
For PPM1N (protein phosphatase, Mg2+/Mn2+ dependent 1N (putative)) #2, the entry reads total luciferase, z-score 0.527; total luciferase, % of control 92.4; inactive.
Against PPM1N (protein phosphatase, Mg2+/Mn2+ dependent 1N (putative)) #3, the entry reads total luciferase, z-score 0.109; total luciferase, % of control 84; inactive.
After knock-down of ZNF182 (zinc finger protein 182) #1, the screen gave total luciferase, z-score 0.341; total luciferase, % of control 88.7; inactive.
ZNF182 (zinc finger protein 182) #2 showed total luciferase, z-score 0.148; total luciferase, % of control 84.8; inactive.
For ZNF182 (zinc finger protein 182) #3 the deposit lists total luciferase, z-score -0.502; total luciferase, % of control 71.9; inactive.
DNMT3A (DNA methyltransferase 3 alpha) #1 showed total luciferase, z-score 1.02; total luciferase, % of control 102; inactive.
With knock-down of DNMT3A (DNA methyltransferase 3 alpha) #2 the results were total luciferase, z-score -0.727; total luciferase, % of control 67.4; inactive.
DNMT3A (DNA methyltransferase 3 alpha) #3 showed total luciferase, z-score -1.57; total luciferase, % of control 50.6; inactive.
Silencing of DLG1 (discs large MAGUK scaffold protein 1) #1 came out at: total luciferase, z-score 0.0874; total luciferase, % of control 83.6; inactive.
Silencing of DLG1 (discs large MAGUK scaffold protein 1) #2 came out at: total luciferase, z-score 0.451; total luciferase, % of control 90.9; inactive.
Against DLG1 (discs large MAGUK scaffold protein 1) #3, the entry reads total luciferase, z-score -0.397; total luciferase, % of control 74; inactive.
After knock-down of GINS2 (GINS complex subunit 2) #1, the record shows total luciferase, z-score -0.454; total luciferase, % of control 72.9; inactive.
Against GINS2 (GINS complex subunit 2) #2, the entry reads total luciferase, z-score 0.523; total luciferase, % of control 92.3; inactive.
GINS2 (GINS complex subunit 2) #3 showed total luciferase, z-score 1.14; total luciferase, % of control 105; inactive.

6 entries from above, arranged by “total luciferase, % of control”, low to high:
DGKK (diacylglycerol kinase kappa) #3 | total luciferase, z-score: -0.825; total luciferase, % of control: 65.5; Call: inactive
PPM1N (protein phosphatase, Mg2+/Mn2+ dependent 1N (putative)) #1 | total luciferase, z-score: -0.696; total luciferase, % of control: 68.1; Call: inactive
DGKK (diacylglycerol kinase kappa) #2 | total luciferase, z-score: -0.391; total luciferase, % of control: 74.1; Call: inactive
PPM1N (protein phosphatase, Mg2+/Mn2+ dependent 1N (putative)) #3 | total luciferase, z-score: 0.109; total luciferase, % of control: 84; Call: inactive
DGKK (diacylglycerol kinase kappa) #1 | total luciferase, z-score: 0.183; total luciferase, % of control: 85.5; Call: inactive
PPM1N (protein phosphatase, Mg2+/Mn2+ dependent 1N (putative)) #2 | total luciferase, z-score: 0.527; total luciferase, % of control: 92.4; Call: inactive

The listing continues.
Knock-down of F5 (coagulation factor V) #1 resulted in: total luciferase, z-score -0.269; total luciferase, % of control 76.5; inactive.
After knock-down of F5 (coagulation factor V) #2 the results were total luciferase, z-score 0.841; total luciferase, % of control 98.6; inactive.
After knock-down of F5 (coagulation factor V) #3, the screen gave total luciferase, z-score -1.65; total luciferase, % of control 49.1; inactive.
Silencing of GPX5 (glutathione peroxidase 5) #1 gave: total luciferase, z-score -1.17; total luciferase, % of control 58.6; inactive.
With knock-down of GPX5 (glutathione peroxidase 5) #2 the results were total luciferase, z-score 0.0334; total luciferase, % of control 82.6; inactive.
GPX5 (glutathione peroxidase 5) #3 scored total luciferase, z-score 2.11; total luciferase, % of control 124; inactive.
Silencing of ZIK1 (zinc finger protein interacting with K protein 1) #1 gave: total luciferase, z-score 1.41; total luciferase, % of control 110; inactive.
Against ZIK1 (zinc finger protein interacting with K protein 1) #2 the deposit lists total luciferase, z-score -0.471; total luciferase, % of control 72.5; inactive.
ZIK1 (zinc finger protein interacting with K protein 1) #3 gave total luciferase, z-score 0.472; total luciferase, % of control 91.3; inactive.
Knock-down of PSAP (prosaposin) #1 came out at: total luciferase, z-score -1.15; total luciferase, % of control 59; inactive.
Silencing of PSAP (prosaposin) #2 came out at: total luciferase, z-score -0.417; total luciferase, % of control 73.6; inactive.
Knock-down of PSAP (prosaposin) #3 gave: total luciferase, z-score -1.38; total luciferase, % of control 54.4; inactive.
Against ABCC2 (ATP binding cassette subfamily C member 2) #1, the entry reads total luciferase, z-score 0.26; total luciferase, % of control 87.1; inactive.
Against ABCC2 (ATP binding cassette subfamily C member 2) #2, the entry reads total luciferase, z-score 0.217; total luciferase, % of control 86.2; inactive.
ABCC2 (ATP binding cassette subfamily C member 2) #3 scored total luciferase, z-score -1.01; total luciferase, % of control 61.7; inactive.
NPBWR2 (neuropeptides B and W receptor 2) #1 gave total luciferase, z-score -0.167; total luciferase, % of control 78.6; inactive.
With knock-down of NPBWR2 (neuropeptides B and W receptor 2) #2 the results were total luciferase, z-score 3.28; total luciferase, % of control 147; active.
For NPBWR2 (neuropeptides B and W receptor 2) #3, the values are total luciferase, z-score 0.677; total luciferase, % of control 95.4; inactive.
